These are yes or no findings as the source states them, for the method shown. Binding seen in cells or lysates may run through a third protein. Some entries that bind do so weakly or less than the wild type. Tags and fused reporters may be left off the sequences shown.

Drawing on publication PMC7983404, this text covers binding for 3 molecules.

The target in test [1] is T1, CP190 (Drosophila melanogaster) (UniProt Q24478).
T1 sequence: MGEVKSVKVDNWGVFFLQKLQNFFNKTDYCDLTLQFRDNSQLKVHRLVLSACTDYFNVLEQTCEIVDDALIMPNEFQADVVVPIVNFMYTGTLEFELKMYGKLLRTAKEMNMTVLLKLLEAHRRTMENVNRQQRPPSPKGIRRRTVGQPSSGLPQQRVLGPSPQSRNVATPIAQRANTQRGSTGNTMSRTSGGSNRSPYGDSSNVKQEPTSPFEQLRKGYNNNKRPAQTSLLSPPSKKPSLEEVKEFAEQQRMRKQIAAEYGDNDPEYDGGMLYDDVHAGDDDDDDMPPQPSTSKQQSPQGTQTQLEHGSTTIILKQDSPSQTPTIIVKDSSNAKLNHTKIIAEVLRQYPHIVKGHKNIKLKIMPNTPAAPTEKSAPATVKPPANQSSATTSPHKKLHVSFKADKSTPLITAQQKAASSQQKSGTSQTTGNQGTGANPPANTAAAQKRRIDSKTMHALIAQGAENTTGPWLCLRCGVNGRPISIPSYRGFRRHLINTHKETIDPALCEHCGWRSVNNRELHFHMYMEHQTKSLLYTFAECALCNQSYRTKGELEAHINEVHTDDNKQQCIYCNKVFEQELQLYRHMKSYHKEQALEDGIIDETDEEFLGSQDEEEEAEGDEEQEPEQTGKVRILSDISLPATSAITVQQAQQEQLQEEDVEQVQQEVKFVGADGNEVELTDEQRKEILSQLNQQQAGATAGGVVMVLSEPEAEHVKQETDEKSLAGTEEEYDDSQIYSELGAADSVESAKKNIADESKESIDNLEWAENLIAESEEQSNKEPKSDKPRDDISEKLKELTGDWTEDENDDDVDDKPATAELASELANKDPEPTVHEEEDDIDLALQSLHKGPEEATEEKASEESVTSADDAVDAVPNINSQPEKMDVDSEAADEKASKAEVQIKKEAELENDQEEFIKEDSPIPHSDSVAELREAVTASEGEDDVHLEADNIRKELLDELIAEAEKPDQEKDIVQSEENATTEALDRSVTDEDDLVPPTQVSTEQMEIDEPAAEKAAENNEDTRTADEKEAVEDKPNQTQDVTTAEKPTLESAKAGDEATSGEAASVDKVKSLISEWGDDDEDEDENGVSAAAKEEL
Put plainly: co-IP; extracts of S2 cells co-transfected with 3×FLAG-Pita and CP190 plasmids, immunoprecipitated with anti-CP190 antibodies (nonspecific IgG as control), western blot with anti-FLAG. For orientation: In western blotting, separated proteins are transferred to a membrane and probed.

Test [2] concerns the target T2, GST-fused Pita 95–302 aa fragment (Drosophila melanogaster) (UniProt Q95RQ8).
T2 sequence: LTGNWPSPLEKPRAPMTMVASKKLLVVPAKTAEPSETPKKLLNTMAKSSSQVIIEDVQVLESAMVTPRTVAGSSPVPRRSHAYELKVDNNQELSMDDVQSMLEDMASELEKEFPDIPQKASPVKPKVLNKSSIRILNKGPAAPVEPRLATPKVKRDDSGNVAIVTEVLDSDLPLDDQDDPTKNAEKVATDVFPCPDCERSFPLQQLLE
The test is described as follows: pull-down; GST-pull-down (glutathione agarose, buffer C: 20 mM Tris-HCl pH 7.5, 150 mM NaCl, 10 mM MgCl2, 0.1 mM ZnCl2, 0.1% NP40, 10% glycerol; washes with 500 mM NaCl; +4 °C) and 6×His-pulldown (Zn-IDA resin, buffer A with 400 mM NaCl) of lysate of BL21 cells co-expressing GST-Pita derivatives and 6×His-thioredoxin-CP190[1–126].

B1: Pita^wt tagged with 3×FLAG (protein, UniProt Q95RQ8 1-683)
chain: MAAKLEVREAMLTEKRVCRFCLTEQKLASIFEENPRVKTTANLPLQIMAITAIEVYAGDGMPGHICLECRLLFEHCYRFKQMCKRAETLLRQYPLTGNWPSPLEKPRAPMTMVASKKLLVVPAKTAEPSETPKKLLNTMAKSSSQVIIEDVQVLESAMVTPRTVAGSSPVPRRSHAYELKVDNNQELSMDDVQSMLEDMASELEKEFPDIPQKASPVKPKVLNKSSIRILNKGPAAPVEPRLATPKVKRDDSGNVAIVTEVLDSDLPLDDQDDPTKNAEKVATDVFPCPDCERSFPLQQLLEIHRLNHTRSRSFQCLLCEKSFFSKYDLAKHNFVHTGERPFKCAICSKAFTRKALLHRHERTHTDVPKFICVYCEKPFLSRQEMEKHAERHQKKRPFQCGVCTKSFAFKQGLERHETVHSTNLPFPCQHCERSFSTASKLARHLVAHAGKRAYPCKYCHKSYMLSHHLSRHLRTHTQTSDASFVCSECKVSYSNYNDLLDHALIHATASLKCPMCRKQIEDIDSVESHMDQHKQSERHACEFCDHIFLTQKCLQRHIEDDHVVEMEPYQNEFEDDGEGEGGVDEKEEHLDDFEDMDNVKQEEFVTEYLEDDALYEDHLDDSDESFTPPPPKQRKTNPPKDAQQSVRQTRSRDAQRITQKTGKNEGKPHHKLERNLKNRRSAK
On to B1, for which the binding result in test [1] is listed as “binds”.

B2: CP190 BTB domain, CP190[1–126], fused with 6×His-thioredoxin (domain or fragment, UniProt Q24478 1-126)
chain: MGEVKSVKVDNWGVFFLQKLQNFFNKTDYCDLTLQFRDNSQLKVHRLVLSACTDYFNVLEQTCEIVDDALIMPNEFQADVVVPIVNFMYTGTLEFELKMYGKLLRTAKEMNMTVLLKLLEAHRRTM
Turning to B2, the binding result in test [2] is “binds”.

B3: Pita^ΔCP1 tagged with 3×FLAG (deletion of the 13 aa core) (protein, UniProt Q95RQ8)
chain: MAAKLEVREAMLTEKRVCRFCLTEQKLASIFEENPRVKTTANLPLQIMAITAIEVYAGDGMPGHICLECRLLFEHCYRFKQMCKRAETLLRQYPLTGNWPSPLEKPRAPMTMVASKKLLVVPAKTAEPSETPKKLLNTMAKSSSQVIIEDVQVLESAMVTPRTVAGSSPVPRRSHAYELKVDNNQELSMDDVQSMLEDMASELEKEFPDIPQKASPVKPGPAAPVEPRLATPKVKRDDSGNVAIVTEVLDSDLPLDDQDDPTKNAEKVATDVFPCPDCERSFPLQQLLEIHRLNHTRSRSFQCLLCEKSFFSKYDLAKHNFVHTGERPFKCAICSKAFTRKALLHRHERTHTDVPKFICVYCEKPFLSRQEMEKHAERHQKKRPFQCGVCTKSFAFKQGLERHETVHSTNLPFPCQHCERSFSTASKLARHLVAHAGKRAYPCKYCHKSYMLSHHLSRHLRTHTQTSDASFVCSECKVSYSNYNDLLDHALIHATASLKCPMCRKQIEDIDSVESHMDQHKQSERHACEFCDHIFLTQKCLQRHIEDDHVVEMEPYQNEFEDDGEGEGGVDEKEEHLDDFEDMDNVKQEEFVTEYLEDDALYEDHLDDSDESFTPPPPKQRKTNPPKDAQQSVRQTRSRDAQRITQKTGKNEGKPHHKLERNLKNRRSAK
As to B3, the binding result in test [1] is “no binding”.
